Where a name gives a salt, the structure may show the parent alone. Some of the results follow. The calls rarely recur for the same compound in another form.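 In K562 cells expressing nanoluciferase-fused kinases, luminescence was recorded at 4 h intervals between 2 and 18 h, normalized as percent of control with DMSO at 100% and a positive control at 0%. A significant (2 sigma) signal drop marks a time point as decreased. The authors' rule for a hit is not shown and takes in more than the number of time points.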
Target: EPHA2 (UniProt P29317)
Experiment: kinase-Nluc reporter destabilization hit call (1 = scored as downregulated) (binary); higher = compound decreases kinase abundance
Conditions: K562; 2-18 h

The chains behind the UniProt entries cited, without tags or fusion partners.
UniProt P29317, whole entry: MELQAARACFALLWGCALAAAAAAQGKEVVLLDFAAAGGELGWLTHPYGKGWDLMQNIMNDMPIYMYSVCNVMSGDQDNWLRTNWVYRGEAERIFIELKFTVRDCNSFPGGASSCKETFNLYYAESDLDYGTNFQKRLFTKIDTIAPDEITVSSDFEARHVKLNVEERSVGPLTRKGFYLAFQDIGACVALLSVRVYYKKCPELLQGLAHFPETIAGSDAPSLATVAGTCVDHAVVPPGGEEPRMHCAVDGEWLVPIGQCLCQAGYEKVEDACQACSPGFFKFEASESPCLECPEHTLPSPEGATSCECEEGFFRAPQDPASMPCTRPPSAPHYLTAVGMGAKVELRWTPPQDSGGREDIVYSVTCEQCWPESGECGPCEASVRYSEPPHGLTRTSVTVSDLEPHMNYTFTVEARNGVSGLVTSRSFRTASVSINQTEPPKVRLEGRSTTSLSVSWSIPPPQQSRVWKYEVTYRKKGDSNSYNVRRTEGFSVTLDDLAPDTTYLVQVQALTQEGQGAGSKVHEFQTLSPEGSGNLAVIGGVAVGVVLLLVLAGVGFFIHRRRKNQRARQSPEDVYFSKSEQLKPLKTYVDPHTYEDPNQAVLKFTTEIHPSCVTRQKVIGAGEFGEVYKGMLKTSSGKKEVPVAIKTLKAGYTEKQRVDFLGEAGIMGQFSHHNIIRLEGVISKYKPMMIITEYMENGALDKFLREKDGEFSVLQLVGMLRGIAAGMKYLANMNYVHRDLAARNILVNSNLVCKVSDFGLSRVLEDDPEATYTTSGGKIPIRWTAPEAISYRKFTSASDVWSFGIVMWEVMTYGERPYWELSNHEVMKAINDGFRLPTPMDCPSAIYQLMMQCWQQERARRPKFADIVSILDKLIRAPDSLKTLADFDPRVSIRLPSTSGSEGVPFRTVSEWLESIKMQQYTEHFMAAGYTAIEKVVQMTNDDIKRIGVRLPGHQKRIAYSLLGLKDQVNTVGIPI

kinase-Nluc reporter destabilization hit call, inactive:
CC(C)(C)n1nc(Cc2cccc3ccccc23)c2c(N)ncnc21 (10 µM) 0
CC1(C)CC=C(c2nc(C3CC(C)(C)OC(C)(C)C3)ccc2NC(=O)c2nc(C#N)c[nH]2)CC1 [Edicotinib] (2.5 µM) 0
CC(C)CC(=O)Nc1n[nH]c2c1CN(C(=O)C1CCN(C)CC1)C2(C)C (2.5 µM) 0
Nc1ncnc2c1c(-c1ccc(Oc3ccccc3)cc1)cn2C1CCCC1 (2.5 µM) 0
CC(=O)NCC(=O)N1[C@@H]2CC[C@H]1c1ccc(Nc3ncc(C(F)(F)F)c(NC4CCC4)n3)cc12 (2.5 µM) 0
Cc1nc(-c2cnc(NC(C)C)n(C)c2=O)ccc1Oc1ccnc(-c2cnn(C)c2)c1 (2.5 µM) 0
CN(C)C(=O)/C(C#N)=C/c1ccc(-c2nc3cnc4[nH]ccc4c3n2C2CCCCC2)o1 (10 µM) 0
CCCS(=O)(=O)Nc1ccc(F)c(C(=O)c2c[nH]c3ncc(Cl)cc23)c1F (10 µM) 0
COc1ccc2c(NC(=O)Nc3cccc(C(F)(F)F)n3)ccnc2c1 (10 µM) 0
CNC(=O)c1cccc(-c2ccc3c(N4CCOC[C@@H]4C)nc(N4CCOC[C@@H]4C)nc3n2)c1 [Vistusertib] (2.5 µM) 0
COCCNCCc1cccc(Nc2ncc3c(n2)-c2ccccc2[C@H](c2ccccc2F)C3)c1 [Derazantinib] (2.5 µM) 0
CNC(=O)c1ccccc1Nc1nc(Nc2ccc(N3CCOCC3)cc2OC)ncc1Cl (2.5 µM) 0
Cc1c(C(=O)N2CCOc3ccc(-c4ccc(N)nc4)cc3C2)ccc(S(C)(=O)=O)c1F (10 µM) 0
Cc1ccc(NC(=O)Nc2nnc(Sc3ncnc4cc(OCCCN5CCOCC5)ccc34)s2)cc1 (10 µM) 0
N#CC(=Cc1ccc(O)c(O)c1)C(=O)NCc1ccccc1 (mixture of isomers) (10 µM) 0
COc1ccc(COc2ccc(Cc3cnc(N)nc3N)cc2OC)cc1 (10 µM) 0
CC(=O)N1CCN(c2ccc(OCC3COC(Cn4ccnc4)(c4ccc(Cl)cc4Cl)O3)cc2)CC1 (stereo not given) [Ketoconazole] (2.5 µM) 0
Cc1ccc(F)c(NC(=O)Nc2ccc(-c3cccc4[nH]nc(N)c34)cc2)c1 [Linifanib] (2.5 µM) 0
NC(=O)c1ccc2nc(-c3ccc(Oc4ccc(Cl)cc4)cc3)[nH]c2c1 (10 µM) 0
CNc1nc(-c2ccc3c(N)n[nH]c3c2)cc(N2C[C@@H](C(=O)NC3CCCCC3)CC[C@H]2C)n1 (10 µM) 0
Cc1nc(N)sc1-c1ccnc(Nc2ccc(N3CCOCC3)cc2)n1 (10 µM) 0
O=c1oc2ccccc2c(O)c1Cc1c(O)c2ccccc2oc1=O [Dicoumarol] (10 µM) 0
CCc1nc(-c2cccc(C)c2)c(-c2ccnc(NC(=O)c3ccccc3)c2)s1 (10 µM) 0
CC(C)(C)c1cc(NC(=O)Nc2ccc(-c3cn4c(n3)sc3cc(OCCN5CCOCC5)ccc34)cc2)no1 [Quizartinib] (10 µM) 0
O=S(=O)(NCCNC/C=C/c1ccc(Br)cc1)c1cccc2cnccc12 [H-89 (dihydrochloride)] (10 µM) 0
COc1cc2ncn(-c3cc(OCc4ccccc4C(F)(F)F)c(C(N)=O)s3)c2cc1OC (10 µM) 0
CCn1cc(-c2ccnc3[nH]c(-c4cccc(CN(C)C)c4)cc23)c(-c2ccc(NC(=O)N(C)C)cc2)n1 (2.5 µM) 0
O=C1c2ccccc2-c2n[nH]c3cccc1c23 (10 µM) 0
C[C@]1(O)C[C@@H](c2nc(-c3ccc4ccc(-c5ccccc5)nc4c3)c3c(N)nccn32)C1 [Linsitinib] (2.5 µM) 0
C[C@H](CN(C)C)Oc1nc(Nc2cc3cccc(Cl)c3cn2)cnc1C#N (10 µM) 0
Cc1cc(C)c(/C=C2\C(=O)Nc3ccccc32)[nH]1 [Semaxinib] (10 µM) 0
Cc1cccc(Cn2nc(C3CC3)c3c(NC(=O)c4cnc5cc(OCCN6CCN(C)CC6)ccn45)cccc32)n1 (10 µM) 0
COc1cc(OC)cc(-c2cc3cnc(N)nc3nc2NC(=O)NC(C)(C)C)c1 (10 µM) 0
CN(c1ncccc1CNc1nc(Nc2ccc3c(c2)CC(=O)N3)ncc1C(F)(F)F)S(C)(=O)=O (2.5 µM) 0
COc1ccc2c(C(=O)Nc3ccc(NC(=O)c4nn(C5CCN(C(=O)CC(C)(C)C#N)CC5)c5ccc(F)cc45)cc3Cl)cnn2c1 [Src Inhibitor 3] (2.5 µM) 0
Oc1ccc(-c2nc(-c3ccc(F)cc3)c(-c3ccncc3)[nH]2)cc1 (2.5 µM) 0
COc1cc(Nc2ncc3c(n2)-c2ccc(Cl)cc2C(c2c(F)cccc2OC)=NC3)ccc1C(=O)O [Alisertib] (2.5 µM) 0
O=c1c(-c2ccc(O)cc2)coc2cc(O)cc(O)c12 [Genistein] (10 µM) 0
CN1CCN(c2ccc(C(=O)Nc3n[nH]c4ccc(Cc5cc(F)cc(F)c5)cc34)c(NC3CCOCC3)c2)CC1 [Entrectinib] (2.5 µM) 0
CCN1CCN(Cc2ccc(C(=O)Nc3ccc(C)c(Oc4ccc5c(c4)CC(=O)N5)c3)cc2C(F)(F)F)CC1 (2.5 µM) 0

2 successive records from above, for reference:
kinase-Nluc reporter destabilization hit call, inactive:
COc1ccc2c(C(=O)Nc3ccc(NC(=O)c4nn(C5CCN(C(=O)CC(C)(C)C#N)CC5)c5ccc(F)cc45)cc3Cl)cnn2c1 [Src Inhibitor 3] (2.5 µM) 0
Oc1ccc(-c2nc(-c3ccc(F)cc3)c(-c3ccncc3)[nH]2)cc1 (2.5 µM) 0

— the supplement of paper PMC12823440, “Inhibitors supercharge kinase turnover through native proteolytic circuits” (Nature, 2025)
